PubChem BioAssay AID1508597 | Cure First | 2020

Purpose: 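Genes whose silencing sensitises or protects ovarian cancer cells against rucaparib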 (primary screen)
Cell system: human ovarian carcinoma lines grown from tumours: OCI-P5x (papillary serous) and OCI-C5x (clear cell)
Reagents: siRNA pool against human genes, 1.25 pmol siRNA per well
Time to read-out: 72 h or 96 h, depending on the cell culture
Challenge: rucaparib 20 µM (about IC30) or vehicle, present until read-out
Measured: 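Luminescent ATP-based viability assay read 72 or 96 h after transfection, depending on culture, given as normalised percent viability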
Reading the numbers: viability, normalised: higher = more viable cells remaining
Call rule: 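a well counts as a hit if its normalised viability is under 80 percent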
Calls: active = viability under 80%; inactive = viability 80% or more
The deposit covers about 2,100 reagents; shown is an unselected part. 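Calls flag viability under 80% in either arm, not effects specific to rucaparib; the reference for percent is not stated.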 Entries without a mark were called inactive. A reagent listed more than once was tested more than once; the source does not tell the runs apart. Not stated in the record: the 100% reference.

gene knocked down	rucaparib or vehicle	cell line	technical replicate	viability, normalised (%)
PRKY	Rucaparib	OCI-C5x (clear cell)	1	53.6 (active)
PRKY	Rucaparib	OCI-C5x (clear cell)	2	65.1 (active)
PRKY	Rucaparib	OCI-C5x (clear cell)	3	39.8 (active)
PRKY	Rucaparib	OCI-P5x (serous)	1	96.2
PRKY	Rucaparib	OCI-P5x (serous)	2	83.8
PRKY	Rucaparib	OCI-P5x (serous)	3	65.6 (active)
PRKY	Vehicle	OCI-C5x (clear cell)	1	117
PRKY	Vehicle	OCI-C5x (clear cell)	2	51.5 (active)
PRKY	Vehicle	OCI-C5x (clear cell)	3	42.7 (active)
PRKY	Vehicle	OCI-P5x (serous)	1	63.8 (active)
PRKY	Vehicle	OCI-P5x (serous)	2	71.9 (active)
PRKY	Vehicle	OCI-P5x (serous)	3	76.5 (active)
HDAC2	Rucaparib	OCI-C5x (clear cell)	1	47.7 (active)
HDAC2	Rucaparib	OCI-C5x (clear cell)	1	29 (active)
HDAC2	Rucaparib	OCI-C5x (clear cell)	2	71.8 (active)
HDAC2	Rucaparib	OCI-C5x (clear cell)	2	46.7 (active)
HDAC2	Rucaparib	OCI-C5x (clear cell)	3	78.7 (active)
HDAC2	Rucaparib	OCI-C5x (clear cell)	3	44.4 (active)
HDAC2	Rucaparib	OCI-P5x (serous)	1	50.8 (active)
HDAC2	Rucaparib	OCI-P5x (serous)	1	88.7
HDAC2	Rucaparib	OCI-P5x (serous)	2	82.9
HDAC2	Rucaparib	OCI-P5x (serous)	2	43.7 (active)
HDAC2	Rucaparib	OCI-P5x (serous)	3	54.3 (active)
HDAC2	Rucaparib	OCI-P5x (serous)	3	75.2 (active)
HDAC2	Vehicle	OCI-C5x (clear cell)	1	55.1 (active)
HDAC2	Vehicle	OCI-C5x (clear cell)	1	41.1 (active)
HDAC2	Vehicle	OCI-C5x (clear cell)	2	49.5 (active)
HDAC2	Vehicle	OCI-C5x (clear cell)	2	50.4 (active)
HDAC2	Vehicle	OCI-C5x (clear cell)	3	57.3 (active)
HDAC2	Vehicle	OCI-C5x (clear cell)	3	45.4 (active)
HDAC2	Vehicle	OCI-P5x (serous)	1	59.8 (active)
HDAC2	Vehicle	OCI-P5x (serous)	1	75.6 (active)
HDAC2	Vehicle	OCI-P5x (serous)	2	71.3 (active)
HDAC2	Vehicle	OCI-P5x (serous)	2	74.7 (active)
HDAC2	Vehicle	OCI-P5x (serous)	3	67.8 (active)
HDAC2	Vehicle	OCI-P5x (serous)	3	66.7 (active)
NCOR2	Rucaparib	OCI-C5x (clear cell)	1	39.2 (active)
NCOR2	Rucaparib	OCI-C5x (clear cell)	2	31 (active)
NCOR2	Rucaparib	OCI-C5x (clear cell)	3	38.7 (active)
NCOR2	Rucaparib	OCI-P5x (serous)	1	42.3 (active)
NCOR2	Rucaparib	OCI-P5x (serous)	2	44.5 (active)
NCOR2	Rucaparib	OCI-P5x (serous)	3	32.9 (active)
NCOR2	Vehicle	OCI-C5x (clear cell)	1	34.8 (active)
NCOR2	Vehicle	OCI-C5x (clear cell)	2	30.5 (active)
NCOR2	Vehicle	OCI-C5x (clear cell)	3	35.2 (active)
NCOR2	Vehicle	OCI-P5x (serous)	1	41 (active)
NCOR2	Vehicle	OCI-P5x (serous)	2	47.8 (active)
NCOR2	Vehicle	OCI-P5x (serous)	3	51.5 (active)
